In patent US20250002528A1:
These are yes or no findings as the source states them, for the method shown. Some entries that bind do so weakly or less than the wild type.

Key:
SpyTag-sfGFP [1] = test: resin capture at 4 °C, sfGFP fluorescence (FIG. 5E)
SpyTag003-sfGFP [2] = test: as above
SpyTag-sfGFP [3] = test: resin capture at 4 °C, fluorescence of flow-through, wash and 37 °C elution fractions
SpyTag003-sfGFP [4] = test: as above
SpyTag-sfGFP [5] = test: SpyDock resin capture from doped E. coli lysate at 4 °C, elution at 37 °C; reducing SDS-PAGE/Coomassie
SpyTag003-sfGFP [6] = test: SpyDock resin capture from doped E. coli lysate at 4 °C, elution at 37 °C; reducing SDS-PAGE/Coomassie [CONT.) D]
SpyTag-sfGFP [7] = test: resin capture of SpyTag-sfGFP at 4 °C; sfGFP fluorescence of flow-through, washes and 37 °C elution fractions, stacked bars [CONT.) E]
SpyTag003-sfGFP [8] = test: resin capture of SpyTag003-sfGFP at 4 °C; sfGFP fluorescence of flow-through, washes and 37 °C elution fractions, stacked bars [CONT.) E]
SpyTag003-sfGFP [9] = test: resin-coupled binder incubated with SpyTag003-sfGFP at pH 8.0 and 4 °C; sfGFP fluorescence of flow-through, wash and stepwise pH 6.0/5.0/4.0 elution fractions
SpyTag003-sfGFP [10] = test: mutant on resin, binding at pH 8.0, stepwise pH elution, sfGFP fluorescence
SpyTag003-sfGFP [11] = test: resin-coupled binder incubated with SpyTag003-sfGFP at pH 8.0 and 4 °C; sfGFP fluorescence of flow-through, wash and stepwise pH 6.0/5.0/4.0 elution fractions [CONT.) C]
SpyTag-sfGFP [12] = test: resin capture and elution (summary of the examples)
SpyTag003-sfGFP [13] = test: as above
SpyTag003-sfGFP [14] = test: resin capture, stepwise pH elution, sfGFP fluorescence
SpyTag003-sfGFP [15] = test: resin binding before regeneration (FIG. 7B)
SpyTag003-sfGFP [16] = test: affinity capture on SpySwitch resin before regeneration
SpyTag-sfGFP [17] = test: affinity capture on SpySwitch resin stored 7 weeks in 20% ethanol at 4 °C, SDS-PAGE
SpyTag-sfGFP [18] = test: affinity capture on SpySwitch resin from doped E. coli lysate, elution pH 5.0 at 4 °C, SDS-PAGE
SpyTag003-sfGFP [19] = test: as above
SpyTag-sfGFP [20] = test: affinity capture on SpySwitch resin from doped E. coli lysate, temperature elution at 37 °C, SDS-PAGE
SpyTag003-sfGFP [21] = test: as above
SpyTag-sfGFP [22] = test: SpySwitch resin capture from doped E. coli lysate at pH 7.5 and 4 °C, elution at pH 8.0 and 37 °C; reducing SDS-PAGE/Coomassie
SpyTag003-sfGFP [23] = test: as above
SpyTag-sfGFP [24] = test: SpySwitch resin capture from doped E. coli lysate at pH 7.5 and 4 °C, elution with pH 5.0 buffer at 4 °C; reducing SDS-PAGE/Coomassie
SpyTag003-sfGFP [25] = test: as above
SpyTag-sfGFP [26] = test: SpySwitch resin stored 7 weeks in 20% (v/v) ethanol in TP buffer pH 7.0 at 4 °C, capture from doped E. coli lysate, elution at pH 5; reducing SDS-PAGE/Coomassie

Measured: binding

B1: SpyDock (designed binder)
chain: VTTLSGLSGEQGPSGDMTTEEDSATHIKFSKRDEDGRELAGATMELRDCSGKTISTWISDGHVKDFYLYPGKYTFVATAAPDGYEVATPITFTVNEDGQVTVNGEATEGDAHT
binds: SpyTag-sfGFP [1] | SpyTag003-sfGFP [2] | SpyTag-sfGFP [3] | SpyTag003-sfGFP [4] | SpyTag-sfGFP [5] | SpyTag003-sfGFP [6] | SpyTag-sfGFP [7] | SpyTag003-sfGFP [8] | SpyTag003-sfGFP [9]

B2: SpyCatcher003 S49C E77A S30H+E85H (designed binder)
chain: VTTLSGLSGEQGPSGDMTTEEDSATHIKFHKRDEDGRELAGATMELRDCSGKTISTWISDGHVKDFYLYPGKYTFVATAAPDGYHVATPIEFTVNEDGQVTVDGEATEGDAHT
binds: SpyTag003-sfGFP [10] | SpyTag003-sfGFP [9] | SpyTag003-sfGFP [11]

B3: SpyCatcher003 S49C E77A S30H+G83H (designed binder)
chain: VTTLSGLSGEQGPSGDMTTEEDSATHIKFHKRDEDGRELAGATMELRDCSGKTISTWISDGHVKDFYLYPGKYTFVATAAPDHYEVATPIEFTVNEDGQVTVDGEATEGDAHT
binds: SpyTag003-sfGFP [10] | SpyTag003-sfGFP [9]

B4: SpyCatcher003 S49C E77A S30H+Y84H (designed binder)
chain: VTTLSGLSGEQGPSGDMTTEEDSATHIKFHKRDEDGRELAGATMELRDCSGKTISTWISDGHVKDFYLYPGKYTFVATAAPDGHEVATPIEFTVNEDGQVTVDGEATEGDAHT
binds: SpyTag003-sfGFP [10] | SpyTag003-sfGFP [9]

B5: SpyCatcher003 S49C E77A S30H+E34H (designed binder)
chain: VTTLSGLSGEQGPSGDMTTEEDSATHIKFHKRDHDGRELAGATMELRDCSGKTISTWISDGHVKDFYLYPGKYTFVATAAPDGYEVATPIEFTVNEDGQVTVDGEATEGDAHT
binds: SpyTag003-sfGFP [10] | SpyTag003-sfGFP [9]

B6: SpyDock2.0 (designed binder)
chain: VTTLSGLSGEQGPSGDMTTEEDSATHIKFHKRDEDGRELAGATMELRDCSGKTISTWISDGHVKDFYLYPGKYTFVATAAPDGHHVATPIEFTVNEDGQVTVDGEATEGDAHT
binds: SpyTag-sfGFP [1] | SpyTag003-sfGFP [2] | SpyTag-sfGFP [12] | SpyTag003-sfGFP [13] | SpyTag003-sfGFP [14] | SpyTag-sfGFP [3] | SpyTag003-sfGFP [4] | SpyTag-sfGFP [7] | SpyTag003-sfGFP [8] | SpyTag003-sfGFP [11]

B7: SpySwitch (designed binder)
chain: MSYYHHHHHHGSGGSGAMVTTLSGLSGEQGPSGDMTTEEDSATHIHFHKHDEDGRELAGATMELRDCSGKTISTWITDGHVKDFYLYPGKYTFVATAAPDGHHVATPIEFTINEDGQVTVDGEATEGDPHTGSSGS
not listed: SpyTag-sfGFP [5] | SpyTag003-sfGFP [6] | SpyTag003-sfGFP [9] | SpyTag003-sfGFP [10] | SpyTag003-sfGFP [11] | SpyTag-sfGFP [12] | SpyTag003-sfGFP [13] | SpyTag003-sfGFP [14]
binds: all other assays above
